Source: publication PMC9279577
Results are given in words; binding and its absence hold for the method and conditions named. Binding seen in cells or lysates may run through a third protein. Binding calls can cover weak binding; strength is not graded here.

Target: LC3B (porcine (endogenous in 3D4/21))
Test: co-IP; 3D4/21 cell lysate pre-cleared with Protein A+G agarose beads; LC3B antibody or normal IgG on Protein A+G agarose beads, rotated overnight at 4°C, washed with PBS four times; Western blot for LC3, SOCS1 and SOCS2

B1: SOCS1 (protein, UniProt E7CR04 1-220)
chain: MVAHNQVAADNAISTAAEPRRRPEHSSSSSSSSSSSSSSSSPGVPARPRPCPAAPAPAPGDTHFRTFRSHADYRRITRASALLDACGFYWGPLSVHGAHERLRAEPVGTFLVRDSRQRNCFFALSVKMASGPTSIRVHFQAGRFHLDGSRESFDCLFELLEHYVAAPRRMLGAPLRQRRVRPLQELCRQRIVATVGRENLARIPLNPVLRDYLSSFPFQI
Q: How did the binding turn out when B1 was run?
A: binds
